The record followed here is patent US10253080B2 (Zealand Pharma A/S, priority 2012, dated 2019).

Data set [1] in a line: general procedure: Fmoc solid-phase peptide synthesis; TentaGel S Ram S. The settings on record: whole synthesis, analytical HPLC and MS, scale of the general procedure 1 g resin, 0.25 mmol/g; run 1.
Data set [2] in a line: general procedure: Fmoc solid-phase peptide synthesis; TentaGel S Ram (0.25 mmol/g); TentaGel S resins 0.22-0.31 mmol/g (S-Ram, S RAM-Lys(Boc)Fmoc, S PHB). The settings on record: whole synthesis, analytical HPLC and MS, scale of the general procedure 1 g resin, run 1.

“H-HGDGSFSDEMNTILDGQAARDFINWLIQTK-NH2 [MW 3377.61]”: the “final HPLC purity” value in data set [1] amounted to 45%; in data set [2] it was 89%.
